Data: PMC8277574
No constants are given. Whether binding was seen depends on the method and setting. In cells and extracts the contact can be indirect. Some results given as binding are weak or reduced against the parent protein; the word gives no strength. Where a sequence is shown, tags or fusion partners need not be part of it.

Target: T1, MUSK JM region phosphopeptide (2), pY553, biotinylated
T1 sequence (peptide, phosphotyrosine p(Y) (Y553); biotin (end not stated)): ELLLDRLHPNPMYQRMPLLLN
Assay: pull-down; biotinylated peptides on streptavidin-agarose beads, incubated overnight at 4 °C with pre-cleared lysates of transfected HEK 293 cells in lysis buffer with 1% NP-40; blot for HA; only the target purified

- binding: binds
B1: HA-tagged DOK7 (protein, UniProt Q18PE0 1-504)
chain: MTEAALVEGQVKLRDGKKWKSRWLVLRKPSPVADCLLMLVYKDKCERSKGLRERSSLTLEDICGLEPALPYEGLAHTLAIICLSQAVMLGFDSHEAMCAWDTRIRYALGEVHRFHVTVAPGTKLESGPATLHLCNDILVLARDIPPTVMGQWKLSDLRRYGAVPNGFIFEGGTRCGYWAGVFFLSSAEGEQMSFLFDCIVRGISPTKGPFGLRPVLPDPSSGGPSASEERVAQEALEALQLEKRLSLLSHSGRPGSGGDDRSLSSSSSEASHSDISASSRLTAWPEQSSSSAGTSQEGPGLVAAQGPGEAMLGASRPPLKPLRPRQLQEVGRQSSSDSGIATGSHSSYSGSFSSYAGSNLDVWRAGEEFGSLLSLPPGASAPEPRLCACPPGAAEYQVPTSLRHHYDTPRSLRQAPRDPSPASQGSSDHGSATDLGGQAPTGCPSSWLGARRRGQATEGPGSDAALPSPSPGESWEAGSPHAGPPPAFFLSCSICGGLKVKPPP
